Among the data in the supplement of paper PMC6411743 are NP40-soluble protein abundance values, retold here.

The chains behind the UniProt entries cited, without tags or fusion partners. Where a name states a change or a piece, a line headed by the entry shows the natural chain unless it says otherwise.
UniProt Q9NYH9: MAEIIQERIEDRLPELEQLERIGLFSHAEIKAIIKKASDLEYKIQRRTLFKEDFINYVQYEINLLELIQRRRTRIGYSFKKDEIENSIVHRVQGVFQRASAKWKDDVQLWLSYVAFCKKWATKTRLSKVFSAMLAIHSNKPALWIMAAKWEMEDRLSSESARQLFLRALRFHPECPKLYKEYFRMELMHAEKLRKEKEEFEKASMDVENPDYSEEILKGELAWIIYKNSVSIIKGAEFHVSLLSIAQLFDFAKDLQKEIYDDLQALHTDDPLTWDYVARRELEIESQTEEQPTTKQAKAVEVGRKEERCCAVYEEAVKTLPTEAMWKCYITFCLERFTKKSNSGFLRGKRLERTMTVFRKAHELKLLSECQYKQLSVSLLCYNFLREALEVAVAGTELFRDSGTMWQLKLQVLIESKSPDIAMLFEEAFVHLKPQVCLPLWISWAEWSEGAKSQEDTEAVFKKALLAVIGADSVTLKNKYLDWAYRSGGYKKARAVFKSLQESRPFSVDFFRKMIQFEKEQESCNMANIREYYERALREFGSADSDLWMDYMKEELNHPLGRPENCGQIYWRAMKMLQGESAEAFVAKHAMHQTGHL
UniProt Q9NRR5, whole entry: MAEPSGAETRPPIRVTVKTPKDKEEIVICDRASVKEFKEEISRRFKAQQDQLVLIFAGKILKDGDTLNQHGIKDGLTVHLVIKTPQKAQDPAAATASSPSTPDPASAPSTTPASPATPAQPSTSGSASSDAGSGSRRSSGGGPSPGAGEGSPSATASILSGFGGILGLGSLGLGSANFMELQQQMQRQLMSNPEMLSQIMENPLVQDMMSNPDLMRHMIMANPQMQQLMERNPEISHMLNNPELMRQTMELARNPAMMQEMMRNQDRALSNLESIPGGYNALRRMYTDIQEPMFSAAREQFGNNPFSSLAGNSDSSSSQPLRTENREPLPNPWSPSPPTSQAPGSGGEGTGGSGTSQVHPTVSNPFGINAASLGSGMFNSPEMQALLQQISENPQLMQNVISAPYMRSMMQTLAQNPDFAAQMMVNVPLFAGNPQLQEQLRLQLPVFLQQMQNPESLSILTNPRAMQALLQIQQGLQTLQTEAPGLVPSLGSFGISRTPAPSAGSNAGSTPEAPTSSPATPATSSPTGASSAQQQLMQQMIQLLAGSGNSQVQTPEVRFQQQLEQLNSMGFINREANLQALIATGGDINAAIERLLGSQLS
UniProt Q9NPB8: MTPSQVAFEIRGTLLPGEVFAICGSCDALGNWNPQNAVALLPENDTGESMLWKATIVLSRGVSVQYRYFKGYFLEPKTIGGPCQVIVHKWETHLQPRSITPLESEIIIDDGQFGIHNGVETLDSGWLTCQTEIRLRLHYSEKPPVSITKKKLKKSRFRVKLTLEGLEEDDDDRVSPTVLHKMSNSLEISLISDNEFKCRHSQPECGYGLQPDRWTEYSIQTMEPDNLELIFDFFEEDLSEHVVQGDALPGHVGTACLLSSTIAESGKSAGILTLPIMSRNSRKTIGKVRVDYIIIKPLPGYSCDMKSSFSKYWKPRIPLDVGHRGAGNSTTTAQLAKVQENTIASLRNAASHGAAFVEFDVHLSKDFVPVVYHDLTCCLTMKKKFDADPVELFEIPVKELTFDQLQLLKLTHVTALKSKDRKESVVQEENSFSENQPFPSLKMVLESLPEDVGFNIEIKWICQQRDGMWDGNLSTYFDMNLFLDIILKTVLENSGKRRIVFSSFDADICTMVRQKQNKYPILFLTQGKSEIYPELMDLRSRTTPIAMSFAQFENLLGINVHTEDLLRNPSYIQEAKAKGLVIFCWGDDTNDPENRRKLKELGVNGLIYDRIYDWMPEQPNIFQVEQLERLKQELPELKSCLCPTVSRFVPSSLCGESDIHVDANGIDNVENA
UniProt Q9NWY4: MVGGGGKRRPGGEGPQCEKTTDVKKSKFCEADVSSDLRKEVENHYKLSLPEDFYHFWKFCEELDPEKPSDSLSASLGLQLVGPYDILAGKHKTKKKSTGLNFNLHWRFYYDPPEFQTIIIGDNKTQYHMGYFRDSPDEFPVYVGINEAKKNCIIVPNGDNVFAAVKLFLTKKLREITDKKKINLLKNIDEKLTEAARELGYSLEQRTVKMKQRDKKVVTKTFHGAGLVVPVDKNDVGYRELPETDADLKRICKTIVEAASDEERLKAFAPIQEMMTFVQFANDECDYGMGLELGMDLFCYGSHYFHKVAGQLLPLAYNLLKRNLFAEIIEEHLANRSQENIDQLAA
UniProt Q9NZB2: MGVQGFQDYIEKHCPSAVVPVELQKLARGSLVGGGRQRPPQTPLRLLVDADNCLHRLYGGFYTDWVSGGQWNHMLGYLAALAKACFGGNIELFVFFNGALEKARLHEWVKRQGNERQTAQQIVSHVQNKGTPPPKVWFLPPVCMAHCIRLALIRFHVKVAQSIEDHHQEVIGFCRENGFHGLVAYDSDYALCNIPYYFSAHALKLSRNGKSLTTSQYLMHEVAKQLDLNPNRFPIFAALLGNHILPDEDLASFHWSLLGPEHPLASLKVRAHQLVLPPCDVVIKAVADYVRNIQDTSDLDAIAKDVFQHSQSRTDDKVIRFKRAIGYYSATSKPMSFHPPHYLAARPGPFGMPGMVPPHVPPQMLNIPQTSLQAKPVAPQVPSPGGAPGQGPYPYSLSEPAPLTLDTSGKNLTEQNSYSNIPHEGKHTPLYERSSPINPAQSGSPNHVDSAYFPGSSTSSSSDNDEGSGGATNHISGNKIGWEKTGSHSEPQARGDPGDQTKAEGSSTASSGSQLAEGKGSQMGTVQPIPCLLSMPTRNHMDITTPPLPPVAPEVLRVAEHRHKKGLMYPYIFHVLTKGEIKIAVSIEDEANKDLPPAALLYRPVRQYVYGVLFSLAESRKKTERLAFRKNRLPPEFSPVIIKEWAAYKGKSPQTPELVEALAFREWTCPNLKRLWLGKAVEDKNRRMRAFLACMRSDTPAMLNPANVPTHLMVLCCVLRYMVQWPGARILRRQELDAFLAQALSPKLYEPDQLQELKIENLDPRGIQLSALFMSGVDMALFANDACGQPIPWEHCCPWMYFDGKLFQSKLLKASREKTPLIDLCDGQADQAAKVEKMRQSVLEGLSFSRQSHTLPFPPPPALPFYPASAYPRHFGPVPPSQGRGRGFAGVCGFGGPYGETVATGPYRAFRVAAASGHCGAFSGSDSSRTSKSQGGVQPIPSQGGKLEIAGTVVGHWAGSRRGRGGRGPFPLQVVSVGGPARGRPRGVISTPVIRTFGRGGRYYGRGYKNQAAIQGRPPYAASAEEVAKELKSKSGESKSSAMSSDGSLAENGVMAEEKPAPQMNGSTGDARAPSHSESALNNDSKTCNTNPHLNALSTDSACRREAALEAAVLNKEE
UniProt Q9NWZ8: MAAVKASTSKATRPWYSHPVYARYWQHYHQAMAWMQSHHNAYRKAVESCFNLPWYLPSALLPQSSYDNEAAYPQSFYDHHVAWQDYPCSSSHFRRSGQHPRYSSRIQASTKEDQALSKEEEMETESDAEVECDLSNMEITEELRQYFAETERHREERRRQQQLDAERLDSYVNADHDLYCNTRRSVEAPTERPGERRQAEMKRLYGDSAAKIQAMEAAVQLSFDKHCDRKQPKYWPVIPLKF
UniProt Q9NVZ3: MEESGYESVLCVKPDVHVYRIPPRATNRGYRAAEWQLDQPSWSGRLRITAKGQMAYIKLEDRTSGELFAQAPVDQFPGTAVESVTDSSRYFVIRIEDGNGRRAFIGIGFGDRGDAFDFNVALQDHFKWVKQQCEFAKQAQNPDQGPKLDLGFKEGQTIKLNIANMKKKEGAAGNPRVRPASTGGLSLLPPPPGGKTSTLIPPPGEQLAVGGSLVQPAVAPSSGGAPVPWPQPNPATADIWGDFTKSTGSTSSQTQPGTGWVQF
UniProt Q9NZR1: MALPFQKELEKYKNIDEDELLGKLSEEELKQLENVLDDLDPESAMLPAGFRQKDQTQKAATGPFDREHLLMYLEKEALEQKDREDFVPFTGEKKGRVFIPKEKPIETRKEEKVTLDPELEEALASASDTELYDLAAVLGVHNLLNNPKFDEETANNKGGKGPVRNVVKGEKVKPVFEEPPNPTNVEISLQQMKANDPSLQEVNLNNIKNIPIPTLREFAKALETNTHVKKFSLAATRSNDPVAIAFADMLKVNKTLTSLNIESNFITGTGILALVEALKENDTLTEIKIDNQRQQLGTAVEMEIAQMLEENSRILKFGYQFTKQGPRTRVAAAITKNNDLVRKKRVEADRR
UniProt Q9NXW9: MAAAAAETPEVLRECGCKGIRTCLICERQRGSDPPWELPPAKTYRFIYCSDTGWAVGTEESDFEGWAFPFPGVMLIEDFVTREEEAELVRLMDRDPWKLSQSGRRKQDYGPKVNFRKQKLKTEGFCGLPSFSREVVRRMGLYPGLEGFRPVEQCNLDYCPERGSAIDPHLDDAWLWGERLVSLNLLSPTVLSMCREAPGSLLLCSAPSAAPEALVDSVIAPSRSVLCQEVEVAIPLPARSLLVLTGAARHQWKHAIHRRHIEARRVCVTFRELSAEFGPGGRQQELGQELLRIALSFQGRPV
UniProt Q9NX04: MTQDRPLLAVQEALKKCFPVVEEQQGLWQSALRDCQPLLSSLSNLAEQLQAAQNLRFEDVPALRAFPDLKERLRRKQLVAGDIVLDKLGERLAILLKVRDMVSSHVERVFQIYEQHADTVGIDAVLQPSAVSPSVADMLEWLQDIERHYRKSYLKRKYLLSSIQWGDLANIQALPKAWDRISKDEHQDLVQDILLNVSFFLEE
UniProt Q9NRV9: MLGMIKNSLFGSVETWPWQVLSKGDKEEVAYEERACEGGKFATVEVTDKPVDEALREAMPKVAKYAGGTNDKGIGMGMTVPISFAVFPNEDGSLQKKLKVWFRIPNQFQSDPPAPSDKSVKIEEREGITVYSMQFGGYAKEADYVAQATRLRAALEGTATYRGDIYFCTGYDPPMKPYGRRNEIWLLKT
UniProt Q9NQX3: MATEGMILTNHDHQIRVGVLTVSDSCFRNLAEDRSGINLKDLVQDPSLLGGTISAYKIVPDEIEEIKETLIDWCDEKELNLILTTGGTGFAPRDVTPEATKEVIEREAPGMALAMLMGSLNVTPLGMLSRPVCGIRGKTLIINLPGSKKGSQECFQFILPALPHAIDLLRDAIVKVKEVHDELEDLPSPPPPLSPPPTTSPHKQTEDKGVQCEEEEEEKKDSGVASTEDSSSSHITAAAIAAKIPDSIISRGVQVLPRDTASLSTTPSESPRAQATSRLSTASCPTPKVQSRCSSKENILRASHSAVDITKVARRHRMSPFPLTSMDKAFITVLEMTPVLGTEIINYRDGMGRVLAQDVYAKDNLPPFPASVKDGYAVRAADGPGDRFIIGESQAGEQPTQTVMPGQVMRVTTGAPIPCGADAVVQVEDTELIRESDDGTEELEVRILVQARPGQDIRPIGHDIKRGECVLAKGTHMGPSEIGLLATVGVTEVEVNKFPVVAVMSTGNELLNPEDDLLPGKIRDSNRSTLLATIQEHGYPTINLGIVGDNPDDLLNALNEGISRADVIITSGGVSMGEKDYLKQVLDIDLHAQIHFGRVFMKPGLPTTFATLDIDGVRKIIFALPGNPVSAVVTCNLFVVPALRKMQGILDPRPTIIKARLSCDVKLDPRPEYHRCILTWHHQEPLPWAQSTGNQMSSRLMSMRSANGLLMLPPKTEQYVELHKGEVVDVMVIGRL
UniProt Q9NVH2, whole entry: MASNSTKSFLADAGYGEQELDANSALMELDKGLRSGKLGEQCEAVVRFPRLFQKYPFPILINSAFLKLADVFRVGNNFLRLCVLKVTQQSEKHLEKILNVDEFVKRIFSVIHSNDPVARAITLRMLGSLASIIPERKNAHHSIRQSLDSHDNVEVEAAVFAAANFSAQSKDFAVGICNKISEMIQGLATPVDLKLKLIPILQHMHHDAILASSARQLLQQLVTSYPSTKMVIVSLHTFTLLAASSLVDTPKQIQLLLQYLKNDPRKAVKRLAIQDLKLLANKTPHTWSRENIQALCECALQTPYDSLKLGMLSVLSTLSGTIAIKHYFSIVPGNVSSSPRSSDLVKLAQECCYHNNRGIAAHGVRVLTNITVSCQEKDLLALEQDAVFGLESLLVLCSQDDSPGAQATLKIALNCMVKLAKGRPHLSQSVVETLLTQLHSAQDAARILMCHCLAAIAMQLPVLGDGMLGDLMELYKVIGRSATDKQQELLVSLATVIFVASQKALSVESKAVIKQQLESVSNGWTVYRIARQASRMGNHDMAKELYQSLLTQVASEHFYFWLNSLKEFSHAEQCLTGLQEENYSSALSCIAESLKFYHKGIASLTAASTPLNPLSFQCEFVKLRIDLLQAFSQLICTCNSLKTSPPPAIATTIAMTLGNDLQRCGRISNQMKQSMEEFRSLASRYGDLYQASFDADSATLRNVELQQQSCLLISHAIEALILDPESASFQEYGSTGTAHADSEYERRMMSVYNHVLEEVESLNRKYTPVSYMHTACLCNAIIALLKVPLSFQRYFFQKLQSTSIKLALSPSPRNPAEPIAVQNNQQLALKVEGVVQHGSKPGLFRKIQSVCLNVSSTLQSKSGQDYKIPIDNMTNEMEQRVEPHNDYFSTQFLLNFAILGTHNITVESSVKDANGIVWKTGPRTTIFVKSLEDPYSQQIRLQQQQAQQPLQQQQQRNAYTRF

± gives the standard deviation of the averaged measurements. The entries are a selection whose mix differs from that of the whole data set. Most values lie at the level of the controls, where differences are scatter.

Compound in the assay: Nc1ncnc2c1ncn2[C@@H]1O[C@H](COP(=O)(O)OP(=O)(O)OP(=O)(O)O)[C@@H](O)[C@H]1O [adenosine triphosphate]
Briefly: NP40-soluble protein abundance relative to vehicle (solubility fold change) (ratio); higher = more soluble protein in presence of ATP. The method in brief: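 In three independent experiments, Jurkat crude lysate made by Dounce homogenisation was treated for 10 min at room temperature and then 3 min at 37 °C with eight concentrations ranging from 0.1 to 10 mM. It was then solubilised with 0.8% NP40 plus benzonase for 60 min at 4 °C and ultracentrifuged. The supernatant was TMT-labelled for LC-MS/MS, and each value is the fold change against the detergent-processed vehicle for the same replicate, using vsn-normalised intensities.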

Consider UTP6 (UniProt Q9NYH9), for which the NP40-soluble protein abundance came to 1.06 ± 0.12 (concentration: 0.1mM) and 0.955 ± 0.065 (concentration: 0.5mM).
In the same order, the values of UBQLN4 (UniProt Q9NRR5) are 1.02 ± 0.064 and 0.994 ± 0.068.
Consider UniProt Q9NV70 and related entries, for which the NP40-soluble protein abundance worked out at 1.08 ± 0.068 (concentration: 0.1mM) and 1.08 ± 0.094 (concentration: 0.5mM).
In the same order, the values of HINT3 (UniProt Q9NQE9) are 1.02 ± 0.045 and 1.06 ± 0.1.
In the same order, the values of ASF1B (UniProt Q9NVP2) are 1.02 ± 0.055 and 1.07 ± 0.044.
In the same order, the values of KLC4 (UniProt Q9NSK0) are 0.961 ± 0.02 and 0.892 ± 0.027.
On to CUTC (UniProt Q9NTM9), for which the NP40-soluble protein abundance (concentration: 0.1mM) turned out to be 1.03 ± 0.095 and the NP40-soluble protein abundance (concentration: 0.5mM) amounted to 1.01 ± 0.066.
For GPCPD1 (UniProt Q9NPB8), in that order: 1.04 ± 0.12 and 1.01 ± 0.11.
In the same order, the values of UniProt Q9NQ88 are 0.983 ± 0.021 and 1.01 ± 0.033.
For UniProt Q9NWY4, in that order: 1.03 ± 0.072 and 1.04 ± 0.065.
UniProt Q9NZB2 and related entries: the NP40-soluble protein abundance runs as follows: (concentration: 0.1mM) 0.992 ± 0.041; (concentration: 0.5mM) 1.02 ± 0.049.
On to FANCI (UniProt Q9NVI1), for which the NP40-soluble protein abundance runs as follows: (concentration: 0.1mM) 1 ± 0.078; (concentration: 0.5mM) 1.01 ± 0.05.
In the same order, the values of GEMIN8 (UniProt Q9NWZ8) are 0.91 ± 0.16 and 0.892 ± 0.14.
For “UniProt Q9NW15-5|C9J670 and related entries”, in that order: 0.997 ± 0.12 and 0.971 ± 0.096.
For NECAP2 (UniProt Q9NVZ3), in that order: 1 ± 0.019 and 0.986 ± 0.027.
Turning to UniProt Q9NVH1 and related entries, the NP40-soluble protein abundance is, setting by setting: (concentration: 0.1mM) 1.04 ± 0.05; (concentration: 0.5mM) 1.02 ± 0.029.
For UniProt Q9NV56, in that order: 0.998 ± 0.037 and 0.985 ± 0.014.
In the same order, the values of UniProt Q9NUQ9 and related entries are 0.9731 ± 0.0089 and 0.988 ± 0.058.
In the same order, the values of UniProt Q9NPI1 and related entries are 1.01 ± 0.062 and 1.12 ± 0.051.
For UniProt Q9P1Y5 and related entries, the NP40-soluble protein abundance turned out to be 1.06 ± 0.083 (concentration: 0.1mM) and 1.07 ± 0.11 (concentration: 0.5mM).
For TMOD2 (UniProt Q9NZR1), in that order: 0.904 ± 0.11 and 0.97 ± 0.089.
Turning to THG1L (UniProt Q9NWX6), the NP40-soluble protein abundance turned out to be 1.09 ± 0.15 (concentration: 0.1mM) and 0.987 ± 0.21 (concentration: 0.5mM).
In the same order, the values of UniProt Q9NZ09 and related entries are 0.943 ± 0.088 and 0.902 ± 0.065.
As for ALKBH4 (UniProt Q9NXW9), the NP40-soluble protein abundance (concentration: 0.1mM) stood at 1.02 ± 0.058 and the NP40-soluble protein abundance (concentration: 0.5mM) is 0.978 ± 0.044.
As for UniProt Q9NXR5 and related entries, the NP40-soluble protein abundance was 0.996 ± 0.094 (concentration: 0.1mM) and 0.953 ± 0.022 (concentration: 0.5mM).
In the same order, the values of UniProt Q9P0I2 are 1.05 ± 0.064 and 1.08 ± 0.057.
For UniProt Q9NX04 and related entries, in that order: 1.06 ± 0.059 and 1.16 ± 0.037.
In the case of UniProt Q9NVK5-2, the NP40-soluble protein abundance by setting is: (concentration: 0.1mM) 0.95 ± 0.1; (concentration: 0.5mM) 0.926 ± 0.061.
For NANS (UniProt Q9NR45), in that order: 1.04 ± 0.069 and 1.05 ± 0.084.
For VPS18 (UniProt Q9P253), in that order: 1.06 ± 0.035 and 1.04 ± 0.065.
In the case of AGPAT5 (UniProt Q9NUQ2), the NP40-soluble protein abundance is, setting by setting: (concentration: 0.1mM) 1.07 ± 0.068; (concentration: 0.5mM) 1.03 ± 0.06.
In the same order, the values of CMTM6 (UniProt Q9NX76) are 0.946 ± 0.07 and 0.927 ± 0.11.
For NSMCE4A (UniProt Q9NXX6), in that order: 1.04 ± 0.021 and 1.04 ± 0.022.
For UniProt Q9NXE8, in that order: 0.947 ± 0.062 and 1.07 ± 0.018.
On to UniProt Q9NRV9 and related entries, for which the NP40-soluble protein abundance was 1.02 ± 0.058 (concentration: 0.1mM) and 0.997 ± 0.11 (concentration: 0.5mM).
In the same order, the values of THYN1 (UniProt Q9P016) are 0.942 ± 0.056 and 0.964 ± 0.061.
For PDLIM7 (UniProt Q9NR12), in that order: 1 ± 0.024 and 0.9909 ± 0.0089.
For UniProt Q9NPH0 and related entries, in that order: 1.08 ± 0.081 and 1.02 ± 0.2.
For KIF13B (UniProt Q9NQT8), the NP40-soluble protein abundance by setting is: (concentration: 0.1mM) 1.02 ± 0.022; (concentration: 0.5mM) 1.05 ± 0.05.
In the same order, the values of UniProt Q9NRW1 are 1.03 ± 0.084 and 1.01 ± 0.081.
In the same order, the values of UniProt Q9NQX3 and related entries are 1.02 ± 0.025 and 0.989 ± 0.03.
For UniProt Q9NR31-2|Q9NR31, in that order: 0.967 ± 0.035 and 1.01 ± 0.047.
For the target UniProt Q9NTX5 and related entries, the NP40-soluble protein abundance by setting is: (concentration: 0.1mM) 0.99 ± 0.034; (concentration: 0.5mM) 0.994 ± 0.035.
In the same order, the values of UniProt Q9NVH2 and related entries are 1.01 ± 0.071 and 0.998 ± 0.066.
For IMPAD1 (UniProt Q9NX62), in that order: 0.979 ± 0.032 and 1.01 ± 0.045.
